Reference: patent US6919204B2, “Modulation of gene expression using localization domains” (Sangamo Biosciences, Inc., priority 2000, dated 2005)
Results are given in words; binding and its absence hold for the method and conditions named. In cells and extracts the contact can be indirect. Some binding calls cover weakened binding; strength is not graded here.

Chains of the proteins cited; added tags and fusions are not shown.
UniProt O97159: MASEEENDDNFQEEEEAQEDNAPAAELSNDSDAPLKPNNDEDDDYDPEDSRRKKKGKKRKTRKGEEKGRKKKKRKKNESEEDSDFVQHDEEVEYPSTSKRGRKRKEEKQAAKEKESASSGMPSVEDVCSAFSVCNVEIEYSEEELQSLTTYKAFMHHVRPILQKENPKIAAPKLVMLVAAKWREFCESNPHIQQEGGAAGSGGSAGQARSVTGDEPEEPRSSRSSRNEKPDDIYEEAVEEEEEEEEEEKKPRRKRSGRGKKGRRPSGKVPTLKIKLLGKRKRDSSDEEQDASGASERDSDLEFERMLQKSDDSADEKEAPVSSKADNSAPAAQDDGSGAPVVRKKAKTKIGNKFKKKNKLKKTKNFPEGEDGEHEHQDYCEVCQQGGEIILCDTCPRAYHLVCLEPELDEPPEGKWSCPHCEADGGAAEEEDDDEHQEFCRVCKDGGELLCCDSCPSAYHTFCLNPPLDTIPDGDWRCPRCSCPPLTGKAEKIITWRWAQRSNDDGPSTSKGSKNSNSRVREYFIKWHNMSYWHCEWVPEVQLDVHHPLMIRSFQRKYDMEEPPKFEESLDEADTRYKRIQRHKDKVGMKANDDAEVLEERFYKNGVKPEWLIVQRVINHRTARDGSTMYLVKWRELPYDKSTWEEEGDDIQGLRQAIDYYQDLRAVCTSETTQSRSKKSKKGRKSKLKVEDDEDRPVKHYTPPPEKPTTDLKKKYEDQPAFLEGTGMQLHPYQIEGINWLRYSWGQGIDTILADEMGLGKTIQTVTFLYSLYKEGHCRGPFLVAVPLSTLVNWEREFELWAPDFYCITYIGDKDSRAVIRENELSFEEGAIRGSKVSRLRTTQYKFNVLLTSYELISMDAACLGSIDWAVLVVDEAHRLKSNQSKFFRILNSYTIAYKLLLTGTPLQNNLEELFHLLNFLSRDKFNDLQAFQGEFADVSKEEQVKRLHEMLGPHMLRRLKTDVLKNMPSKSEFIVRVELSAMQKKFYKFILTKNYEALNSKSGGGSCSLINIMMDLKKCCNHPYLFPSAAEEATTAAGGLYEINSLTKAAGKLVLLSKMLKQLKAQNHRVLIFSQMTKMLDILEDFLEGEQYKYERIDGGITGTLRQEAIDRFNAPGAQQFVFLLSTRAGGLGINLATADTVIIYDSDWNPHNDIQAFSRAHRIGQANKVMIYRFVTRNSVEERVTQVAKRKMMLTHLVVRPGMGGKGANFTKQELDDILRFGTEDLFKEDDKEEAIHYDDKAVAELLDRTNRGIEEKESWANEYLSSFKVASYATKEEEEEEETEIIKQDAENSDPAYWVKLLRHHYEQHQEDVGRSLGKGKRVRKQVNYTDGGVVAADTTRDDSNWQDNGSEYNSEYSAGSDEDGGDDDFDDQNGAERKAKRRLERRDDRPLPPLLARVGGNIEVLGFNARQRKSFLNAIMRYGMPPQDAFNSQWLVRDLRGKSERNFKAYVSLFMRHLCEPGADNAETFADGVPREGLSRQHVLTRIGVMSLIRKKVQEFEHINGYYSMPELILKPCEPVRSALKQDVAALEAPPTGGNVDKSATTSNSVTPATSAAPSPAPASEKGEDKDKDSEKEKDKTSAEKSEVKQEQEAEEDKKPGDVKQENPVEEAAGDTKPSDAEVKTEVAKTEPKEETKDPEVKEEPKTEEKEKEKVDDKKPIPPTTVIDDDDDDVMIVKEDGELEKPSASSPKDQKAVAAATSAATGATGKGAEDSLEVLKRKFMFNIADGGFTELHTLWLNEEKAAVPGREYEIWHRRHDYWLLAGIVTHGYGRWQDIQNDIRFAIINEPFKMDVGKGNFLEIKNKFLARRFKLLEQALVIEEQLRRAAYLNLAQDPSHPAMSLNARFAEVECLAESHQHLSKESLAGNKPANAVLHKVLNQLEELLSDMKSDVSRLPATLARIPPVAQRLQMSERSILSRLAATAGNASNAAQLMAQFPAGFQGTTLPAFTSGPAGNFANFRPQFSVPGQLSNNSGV

Molecular target: Mi-2 (Drosophila) (UniProt O97159)
Experiment: co-elution on Superose 6 gel filtration (about 1 MDa) after BioRex 70 and MonoQ, immunoblot

- binding: binds
B1: Drosophila MBD-likeΔ (protein)
chain: MQMNPSVTIERKRVDCSVLPKGWQRDEVRKSGSSANNNASSNNNSSATASSNNNNNKVDVFYYSRALRTDVSLVPPIRQTASIFKQPVTVIRNHKQDPAKAKNEPKHGTREKPKQLFWEKRLERLRACHDSGEELDDISLPKTIRTVGPNVNEQTVLQSVATALHMLNAGVHGQSSTKADLTKNAMAFMNPEQPLMHAVIISEDDIRKQEDRVGVARRKLQDALKT
